Results reported in PubChem BioAssay AID1671190 (National Center for Advancing Translational Sciences (NCATS), 2021).
Out of some 580,000 compounds screened, about 6,100 (1.1%) were called active. The inconclusive results got no clear call from the source; some entries with a clear call stand among them for comparison. Calls come from the whole dose curve; as a rule, active = well fitted inhibition curve with a large enough effect; inconclusive = small, poorly fitted or top-dose-only effect, or another doubt; inactive = no such curve, though single readings can be large or run the other way. Potencies beside an inconclusive call are fits to weak or partial responses and may not hold up.

By UniProt entry, the sequences of proteins in these tests, tags left out. Where a name states a change or a piece, a line headed by the entry shows the natural chain unless it says otherwise.
UniProt P18054: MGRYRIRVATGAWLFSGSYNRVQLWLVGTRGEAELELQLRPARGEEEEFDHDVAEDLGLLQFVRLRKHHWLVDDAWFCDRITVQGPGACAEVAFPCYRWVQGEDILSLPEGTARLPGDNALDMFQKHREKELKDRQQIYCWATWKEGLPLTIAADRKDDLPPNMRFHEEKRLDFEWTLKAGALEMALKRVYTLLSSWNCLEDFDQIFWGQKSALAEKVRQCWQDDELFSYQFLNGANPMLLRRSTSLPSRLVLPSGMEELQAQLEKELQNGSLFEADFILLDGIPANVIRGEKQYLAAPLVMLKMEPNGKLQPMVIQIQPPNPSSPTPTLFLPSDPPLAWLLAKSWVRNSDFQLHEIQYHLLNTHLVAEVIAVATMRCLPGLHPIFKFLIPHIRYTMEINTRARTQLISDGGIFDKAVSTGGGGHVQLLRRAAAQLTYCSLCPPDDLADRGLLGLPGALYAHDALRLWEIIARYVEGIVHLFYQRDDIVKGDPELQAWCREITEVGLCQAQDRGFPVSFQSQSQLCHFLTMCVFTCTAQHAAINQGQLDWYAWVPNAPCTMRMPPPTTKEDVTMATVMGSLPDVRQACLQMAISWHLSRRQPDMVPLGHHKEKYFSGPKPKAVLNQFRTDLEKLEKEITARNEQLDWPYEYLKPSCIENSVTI

What follows are molecules tested against Polyunsaturated fatty acid lipoxygenase ALOX12 (Homo sapiens) (UniProt P18054) (assay: Primary qHTS assay for inhibitors of human arachidonate 12S-lipoxygenase (ALOX12): Round 2). Conditions: purified 12hLO, xylenol orange hydroperoxide absorbance; activity change, negative = inhibition: at 108 µM (top of the series) unless noted.
Method in brief: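 Hydroperoxide product was detected by ferrous iron/xylenol orange as the 573 to 405 nm absorbance ratio. Arachidonic acid at 40 uM (final) was turned over for 30 min at room temperature by 150 nM human 12hLO, pH 7.0 Hepes buffer, after 15 min compound preincubation.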
% is set by controls: 0 for no effect and ±100 for the full control effect; potency is the fitted concentration of half-maximal effect.

| Compound | activity change, negative = inhibition | Potency |
| --- | --- | --- |
| O=C(CSc1ccc2ccccc2c1)Nc1ccncc1 | inactive: 0.279% |  |
| CCc1c(C2(O)CCCCC2)[nH]c2ncccc12 |  | inconclusive: 89.1 µM [inhibitor, single point] |
| CSc1ccccc1NS(=O)(=O)c1cccc2nonc12 |  | inconclusive: 44.7 µM [inhibitor, partial curve, poor fit] |
| CC(C)C(=O)Nc1ccc(I)cc1Cl |  | inconclusive: 112 µM [inhibitor, single point] |
| S=C(NCC1CCCCC1)Nc1ccc(Oc2ccccc2)cc1 |  | active: 39.8 µM |
| CN1C(=S)SC(C)(NO)C1(C)C (stereo not given) |  | inconclusive: 4.47 µM [inhibitor, full curve, poor fit] |
| Cc1ncc(CO)c2c1Oc1nc(-c3ccccc3)nc(SCC(=O)Nc3cccc(O)c3)c1C2 |  | inconclusive: 158 µM [inhibitor, single point] |
| COc1cc(C#N)ccc1OCC(=O)c1ccc2c(c1)CCC2 | inactive: -22.4% |  |
| O=C(NCCN1CCC(n2c(=O)[nH]c3ccccc32)CC1)c1ccc(F)cc1Cl |  | active: 1.12 µM |
| COc1ccc(/C=N/N2CCN(C)CC2)cc1O |  | inconclusive: 22.4 µM [inhibitor, partial curve, poor fit] |
| COc1ccccc1N(CC(=O)NCCSCc1ccc(Cl)cc1)S(C)(=O)=O |  | inconclusive: 141 µM [inhibitor, partial curve, poor fit] |
| COc1ccc(S(=O)(=O)NC[C@@H]2C=C(C)[C@H](CC(=O)N3CCN(c4ccccn4)CC3)C[C@H]2C(C)C)cc1 | inactive: -22.7% |  |
| C(=N\N1CCN(Cc2cccc3ccccc23)CC1)/c1ccco1 |  | inconclusive: 112 µM [inhibitor, single point] |
| O=C1Nc2ccccc2N(C(=O)c2ccc(-c3ccccc3)cc2)C1c1nc2ccccc2[nH]1 (stereo not given) |  | inconclusive: 28.2 µM [inhibitor, partial curve, poor fit] |
| COc1ccc(-c2cccc([C@H]3[C@@H]4C=CCC[C@@]4(C)C(=O)N3Cc3ccccc3)c2)cc1 |  | inconclusive: 56.2 µM [inhibitor, partial curve, poor fit] |
| C/C(=N\OC(=O)c1c(F)cccc1F)c1ccc(F)cc1F | inactive: -3.6% |  |
| CCN(CC)CCN1C(=O)C(=O)/C(=C(/O)c2c(C)[nH]c(C(=O)OC)c2C)C1c1ccc(OC)cc1 (stereo not given) |  | inconclusive: 89.1 µM [inhibitor, single point] |
| CC(NS(=O)(=O)OCC(Cl)(Cl)Cl)c1ccc(C(C)(C)C)cc1 (stereo not given) | inactive: -0.707% |  |
| O=C(CSC1=NS(=O)(=O)c2cc(F)ccc2N1)Nc1ccc(F)cc1 |  | inconclusive: 112 µM [inhibitor, single point] |
| COc1ccc(NC(=O)c2sc3nc4c(c(-c5ccco5)c3c2N)CCCCC4)c(OC)c1 | inactive: 47.4% |  |
| CCc1nc(C)sc1CN1CCCn2nc(CCC(=O)O)cc2C1 |  | inconclusive: 44.7 µM [inhibitor, partial curve, poor fit] |
| CNC(=O)/C=C1\NC(C)(C)Cc2c1ccc1ccccc21 |  | inconclusive: 14.1 µM [inhibitor, partial curve, poor fit] |

| Compound | activity change, negative = inhibition | Potency |
| --- | --- | --- |
| COc1ccc(C(C)C)cc1C1c2nc[nH]c2CCN1Cc1nc[nH]c1C (stereo not given) | inactive: 111% |  |
| COC(=O)/C=C1\S/C(=N/N=C/c2ccccc2)NC1=O |  | inconclusive: 3.98 µM [inhibitor, full curve, poor fit] |
| Cc1[nH][nH]c(=O)c1C(c1ccc(-c2ccc(Cl)cc2)o1)c1c(C)[nH][nH]c1=O |  | inconclusive: 100 µM [inhibitor, partial curve, poor fit] |
| CC(=O)Nc1ccccc1NC(=O)CN1CCN(Cc2ncccc2C)CC1 | inactive: 94.5% |  |
| Cc1cnc(C)c(Nc2nc(C(N)Cc3ccc(C(F)(F)F)cc3)cs2)n1 (stereo not given) |  | inconclusive: 89.1 µM [inhibitor, partial curve, poor fit] |
| CCCN(CCC)CC(O)Cn1cc(/C=C/C(=O)c2cccs2)c2ccccc21 (stereo not given) |  | inconclusive: 112 µM [inhibitor, partial curve, poor fit] |
| CCOC(=O)C1C(=O)CC(C)(O)C(C(=O)OCC)C1/C=C/c1ccccc1 (stereo not given) | inactive: 10.1% |  |
| COC(=O)c1ccccc1NCc1cc(=O)oc2cc(O)c(O)cc12 |  | inconclusive: 2.51 µM [inhibitor, full curve, poor fit] |
| CC1(C)Cc2c(C#N)c(NCc3ccco3)nc(-c3ccco3)c2CO1 |  | inconclusive: 89.1 µM [inhibitor, single point] |
| Cc1cc2ccccn2c1C(=O)c1ccc(NN)c([N+](=O)[O-])c1 |  | inconclusive: 35.5 µM [inhibitor, partial curve] |
| COc1ccc(-c2cc(C(F)(F)F)nc(N3CCN(Cc4ccccc4)CC3)n2)cc1OC |  | inconclusive: 5.62 µM [inhibitor, full curve, poor fit] |
| Fc1ccc2c(c1)Sc1ccc(Cl)cc1CC2N1CCN(CCC2OCCO2)CC1 (stereo not given) |  | inconclusive: 89.1 µM [inhibitor, single point] |
| c1ccc(-c2nnc3n2N=C(c2ccc4c(c2)OCO4)CS3)nc1 | inactive: -6.69% |  |
| Cc1c(Cl)ccc(S(=O)(=O)NCCCn2ccnc2)c1Cl | inactive: 14.3% |  |
| O=C(NCCc1c[nH]c2ccccc12)c1cnc2ccccc2n1 |  | inconclusive: 56.2 µM [inhibitor, partial curve, poor fit] |
| COc1cc(NC(=O)CCNS(=O)(=O)c2ccc3c(c2)CCN3C(=O)C2CC2)cc(OC)c1 |  | inconclusive: 158 µM [inhibitor, partial curve, poor fit] |
| CC(C)C[C@@H](CN1CCC[C@H]1CN1C(=O)C(=O)NC[C@@H]1Cc1ccccc1)N1C[C@H](Cc2ccccc2)N(CC2CCCCC2)C(=O)C1=O |  | inconclusive: 6.31 µM [inhibitor, full curve, poor fit] |
| CCOC(=O)N1CCN(C(=O)Cn2nc(-c3ccccc3F)ccc2=O)CC1 | inactive: 16.4% |  |
| O=C(COC(=O)c1c[nH]c2ccccc12)Nc1ccc(N2CCOCC2)cc1 |  | inconclusive: 56.2 µM [inhibitor, single point] |
| CCCCn1c(SCC(=O)Nc2nnc(CC)s2)nc2c1c(=O)n(C)c(=O)n2C | inactive: -16.5% |  |
| Oc1ccc(N2CCN(c3ccnc4cc(Cl)ccc34)CC2)cc1 |  | inconclusive: 39.8 µM [inhibitor, partial curve] |
| O=C(O)CC(NC(=O)Cc1ccc([N+](=O)[O-])cc1)c1ccc2c(c1)OCO2 (stereo not given) |  | inconclusive: 100 µM [inhibitor, single point] |

An excerpt of these results, with each value named.
Cc1cc2ccccn2c1C(=O)c1ccc(NN)c([N+](=O)[O-])c1
  Potency: inconclusive: 35.5 µM [inhibitor, partial curve]
COc1ccc(-c2cc(C(F)(F)F)nc(N3CCN(Cc4ccccc4)CC3)n2)cc1OC
  Potency: inconclusive: 5.62 µM [inhibitor, full curve, poor fit]

Further entries:

| Compound | activity change, negative = inhibition | Potency |
| --- | --- | --- |
| COc1ccc(OC)c(S(=O)(=O)Oc2ccc(N)c3ccccc23)c1 |  | inconclusive: 35.5 µM [inhibitor, single point] |
| CC/C=C\[C@H](O)[C@H](O)C1=C(C)C(=O)[C@]2(O1)C(=O)N[C@@](OC)(C(=O)c1ccccc1)C2O (stereo not given in full) |  | inconclusive: 89.1 µM [inhibitor, partial curve, poor fit] |
| CC(C)OCCCN1C(=O)c2[nH]nc(-c3ccccc3O)c2C1c1cccc(Cl)c1 (stereo not given) |  | inconclusive: 100 µM [inhibitor, partial curve, poor fit] |
| Cc1ccc(CN2CCSCC2)cc1 | inactive: 16.2% |  |
| O=C(CCN1CCc2ccccc2CC1)c1ccc2c(c1)OCCO2 | inactive: -19% |  |
| Cc1cc(C(=O)N[C@@H]2CCC[C@@H](C(=O)N(C)Cc3cccnc3)CC(=O)N(C)C2)c(C(F)(F)F)o1 |  | inconclusive: 50.1 µM [inhibitor, full curve, poor fit] |
| COc1ccc(CN2C(=O)CCC2(C)C(=O)NC2CCCCCC2)cc1 (stereo not given) | inconclusive: -30.6% [inhibitor] |  |
| CCN1c2cc(C(=O)NCc3cccc(C(F)(F)F)c3)ccc2C(=O)N2CCCCCC21 (stereo not given) | inactive: 6.7% |  |
| COCCNC(=O)C[C@@H]1C[C@H]2O[C@H](CNCc3cnccc3Cl)[C@@H](O)[C@H]2O1 |  | inconclusive: 11.2 µM [inhibitor, partial curve, poor fit] |
| COCCc1ccc(OC2(C)CCN(Cc3ccc(OC)c4ccccc34)C2)cc1 (stereo not given) |  | inconclusive: 141 µM [inhibitor, single point] |
| Cc1cccc(Cc2cnc(NC(=O)c3nn(C)c(=O)c4ccccc34)s2)c1 |  | inconclusive: 44.7 µM [inhibitor, partial curve, poor fit] |
| CC(=O)NN1C(=O)/C(=C\c2ccc(Br)o2)SC1=S |  | inconclusive: 39.8 µM [inhibitor, partial curve] |
| COc1ccc(N)cc1-n1cnnn1 |  | inconclusive: 44.7 µM [inhibitor, single point] |
| O=c1c2cnn(-c3ccccc3)c2nc(-c2ccco2)n1-c1ccccc1 | inactive: -14.5% |  |
| COc1ccc(CC(=O)NC(c2ccccc2)c2ccc(C)cc2)c(OC)c1 (stereo not given) |  | inconclusive: 89.1 µM [inhibitor, single point] |
| CS(=O)(=O)N(CCCC(=O)Nc1ccc(Br)cc1F)c1ccccc1 |  | inconclusive: 50.1 µM [inhibitor, partial curve, poor fit] |
| COc1ccc(N2CCN(C(c3ccccc3)c3nnc(-c4ccccc4Cl)o3)CC2)cc1 (stereo not given) |  | inconclusive: 56.2 µM [inhibitor, partial curve, poor fit] |
| CCc1ccc(CNC(=O)c2nn(C)c3c2CS(=O)(=O)c2ccccc2-3)cc1 | inactive: -2% |  |
| Cc1cc(C(=O)CSc2nnc(N)s2)c(C)n1C1CC1 |  | inconclusive: 0.282 µM [inhibitor, full curve, poor fit] |
| O=C1NC2(CCN(Cc3ccsc3)CC2)Oc2ccccc21 |  | inconclusive: 44.7 µM [inhibitor, partial curve] |
| CN(C)C[C@@H]1CN(c2ccncn2)C[C@H]1NC(=O)c1ccco1 | inactive: 48.6% |  |

Two records drawn at random from the list so far, as already listed:

| Compound | activity change, negative = inhibition | Potency |
| --- | --- | --- |
| COc1ccc(OC)c(S(=O)(=O)Oc2ccc(N)c3ccccc23)c1 |  | inconclusive: 35.5 µM [inhibitor, single point] |
| O=c1c2cnn(-c3ccccc3)c2nc(-c2ccco2)n1-c1ccccc1 | inactive: -14.5% |  |
